Like-named read-outs stand apart in the source and are kept apart here. No constants are given. Whether binding was seen depends on the method and setting. Binding seen in cells or lysates may run through a third protein. Some results given as binding are weak or reduced against the parent protein; the word gives no strength. Where a sequence is shown, tags or fusion partners need not be part of it.

By UniProt entry, the sequences of proteins in these tests, tags left out.
UniProt P0A3F4: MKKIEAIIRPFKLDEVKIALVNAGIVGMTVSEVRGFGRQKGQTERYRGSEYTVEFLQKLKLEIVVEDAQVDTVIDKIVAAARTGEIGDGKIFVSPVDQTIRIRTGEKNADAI

Holding throughout (experiment): split reporter
Assay [1] has as its target T1, NtcA-LgBiT fusion protein (Synechococcus elongatus PCC 7942) (UniProt P29283).
T1 sequence: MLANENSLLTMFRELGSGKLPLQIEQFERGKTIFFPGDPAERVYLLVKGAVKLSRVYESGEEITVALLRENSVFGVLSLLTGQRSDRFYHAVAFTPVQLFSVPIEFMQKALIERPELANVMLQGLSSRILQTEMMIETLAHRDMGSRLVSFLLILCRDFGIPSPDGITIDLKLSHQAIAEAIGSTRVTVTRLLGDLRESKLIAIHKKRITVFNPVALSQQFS

For assay [2], the target named is T1, NtcA-LgBiT fusion protein (Synechococcus elongatus PCC 7942). The source holds these as a separate data set.
In assay [3] the target is PII-LgBiT fusion protein (Synechococcus elongatus PCC 7942) (UniProt P0A3F4).
Assay [4] concerns the target T2, EngA-LgBiT fusion protein (Synechococcus elongatus PCC 7942) (UniProt Q31KP9).
T2 sequence: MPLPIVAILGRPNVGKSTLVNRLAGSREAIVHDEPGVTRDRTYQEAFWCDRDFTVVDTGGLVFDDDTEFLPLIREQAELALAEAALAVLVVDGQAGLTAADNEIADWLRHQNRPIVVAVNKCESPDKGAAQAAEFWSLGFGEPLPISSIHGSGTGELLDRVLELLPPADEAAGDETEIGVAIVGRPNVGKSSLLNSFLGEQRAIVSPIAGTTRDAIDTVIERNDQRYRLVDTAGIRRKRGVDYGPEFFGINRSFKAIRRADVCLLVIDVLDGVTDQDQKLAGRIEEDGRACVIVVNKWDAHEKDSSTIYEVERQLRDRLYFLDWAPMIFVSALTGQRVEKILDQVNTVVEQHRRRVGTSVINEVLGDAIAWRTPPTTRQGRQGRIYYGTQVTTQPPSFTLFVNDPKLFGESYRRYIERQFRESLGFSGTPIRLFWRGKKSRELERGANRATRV

B1: PipX-SmBiT fusion protein (protein, UniProt Q7X386 1-89)
chain: MASENYLNHPTFGLLYQICSFGDSKELFATLYAQRLFFLVAFDARGTRFEPIGRNEARMLVDNRLRQLRRDASLQEYNQLQQVFKQTFL
Turning to B1, the binding entry in assay [1] is reported as “binds weakly”; in assay [2], “binds”; in assay [3], “binds”; in assay [4], “binds”.
